These are yes or no findings as the source states them, for the method shown. A result given as binding can be weak or reduced; the word gives no strength. Where a sequence is shown, tags or fusion partners need not be part of it.
Target: T1, Dor/Vps18 (yeast two-hybrid fusion) (Drosophila melanogaster) (UniProt Q24314)
T1 sequence: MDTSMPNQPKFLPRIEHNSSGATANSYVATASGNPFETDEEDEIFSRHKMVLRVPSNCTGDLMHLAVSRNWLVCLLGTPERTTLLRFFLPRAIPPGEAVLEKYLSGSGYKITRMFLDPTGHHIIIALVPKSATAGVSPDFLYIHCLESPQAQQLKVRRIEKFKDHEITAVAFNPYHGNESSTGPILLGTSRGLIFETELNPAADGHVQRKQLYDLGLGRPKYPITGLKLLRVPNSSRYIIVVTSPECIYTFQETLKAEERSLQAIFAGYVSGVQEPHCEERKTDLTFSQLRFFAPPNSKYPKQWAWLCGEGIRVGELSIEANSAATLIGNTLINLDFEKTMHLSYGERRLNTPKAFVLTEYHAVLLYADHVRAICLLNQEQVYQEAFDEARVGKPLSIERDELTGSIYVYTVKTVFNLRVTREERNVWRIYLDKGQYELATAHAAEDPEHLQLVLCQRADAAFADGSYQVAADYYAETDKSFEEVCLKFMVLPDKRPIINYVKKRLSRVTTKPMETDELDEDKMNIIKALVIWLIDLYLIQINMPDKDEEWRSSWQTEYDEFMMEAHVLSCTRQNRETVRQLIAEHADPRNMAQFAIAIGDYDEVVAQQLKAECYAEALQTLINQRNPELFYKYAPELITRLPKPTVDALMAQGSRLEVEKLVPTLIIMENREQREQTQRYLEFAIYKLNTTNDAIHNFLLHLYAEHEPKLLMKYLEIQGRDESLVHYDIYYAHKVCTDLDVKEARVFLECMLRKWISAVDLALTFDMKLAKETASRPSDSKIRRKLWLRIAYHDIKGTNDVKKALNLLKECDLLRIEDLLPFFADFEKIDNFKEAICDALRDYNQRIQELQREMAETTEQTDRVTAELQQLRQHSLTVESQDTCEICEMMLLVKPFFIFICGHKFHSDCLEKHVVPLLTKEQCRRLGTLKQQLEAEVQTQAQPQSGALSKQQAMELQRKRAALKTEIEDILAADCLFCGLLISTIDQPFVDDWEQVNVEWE
Assay: two-hybrid; pGADT7 AD and pGBKT7 BD fusions in yeast strain PJ69-4A; growth on Trp-, Leu-, Ade- plates; empty vectors as negative controls

binding: binds
Substance: Rbsn-5 (yeast two-hybrid fusion) (from UniProt Q9VLS5)
